# Experimental data published in patent publication US10091998B2, “Tetrazolinone compound and use thereof” (SUMITOMO CHEMICAL COMPANY, LIMITED, priority 2013, dated 2018).
# Some of these results come from one statement about several compounds together.
# Tests used:
# [1] = test system: wheat rust fungus (Puccinia recondita); assay: Test Example 3: wheat rust, foliar spray; type: in vivo; conditions: 200 ppm spray on wheat (SHIROGANE); inoculated 5 days after spraying
# [2] = test system: rice blast fungus (Magnaporthe grisea); type: in vivo; conditions: 200 ppm spray on rice (NIHONBARE); 6 days in contact with infected seedlings
structure (smiles),measurement,setting,value
Cc1cc(-c2cccc(Cl)n2)ccc1COc1c(C)cccc1-n1nnn(C)c1=O [Present Compound 20],area of lesion on the treated plant relative to that on an untreated plant,[1],≤ 30%
same,lesion area on the treated plant with respect to the lesion area on the non-treated plant,[2],≤ 30%
Cc1cc(-c2ccccc2C)ccc1/C=C/c1c(C)cccc1-n1nnn(C)c1=O [Present Compound 28],area of lesion on the treated plant relative to that on an untreated plant,[1],≤ 30%
same,lesion area on the treated plant with respect to the lesion area on the non-treated plant,[2],≤ 30%
Cc1cc(-c2ccccc2C)ccc1COc1c(C)cccc1-n1nnn(C)c1=O [Present Compound 17],lesion area on the treated plant with respect to the lesion area on the non-treated plant,[2],≤ 30%
Cc1cccc(-n2nnn(C)c2=O)c1OCc1ccccc1Oc1ccccc1 [Present Compound 4],area of lesion on the treated plant relative to that on an untreated plant,[1],≤ 30%
Cc1ccc(-c2ccc(/C=C/c3c(C)cccc3-n3nnn(C)c3=O)c(C)c2)cc1 [Present Compound 30],area of lesion on the treated plant relative to that on an untreated plant,[1],≤ 30%
same,lesion area on the treated plant with respect to the lesion area on the non-treated plant,[2],≤ 30%
COc1ccc(-c2ccc(COc3c(C)cccc3-n3nnn(C)c3=O)c(C)c2)cc1 [Present Compound 16],area of lesion on the treated plant relative to that on an untreated plant,[1],≤ 30%
same,lesion area on the treated plant with respect to the lesion area on the non-treated plant,[2],≤ 30%
Cc1cc(-c2ccc(Cl)cn2)c(C)cc1COc1c(C)cccc1-n1nnn(C)c1=O [Present Compound 44],area of lesion on the treated plant relative to that on an untreated plant,[1],≤ 30%
same,lesion area on the treated plant with respect to the lesion area on the non-treated plant,[2],≤ 30%
Cc1ccc(-c2ccc(COc3c(C)cccc3-n3nnn(C)c3=O)c(C)c2)cc1 [Present Compound 15],area of lesion on the treated plant relative to that on an untreated plant,[1],≤ 30%
same,lesion area on the treated plant with respect to the lesion area on the non-treated plant,[2],≤ 30%
Cc1cc(-c2ncccc2Cl)ccc1COc1c(C)cccc1-n1nnn(C)c1=O [Present Compound 22],area of lesion on the treated plant relative to that on an untreated plant,[1],≤ 30%
same,lesion area on the treated plant with respect to the lesion area on the non-treated plant,[2],≤ 30%
Cc1cc(-c2ncc(C(F)(F)F)cc2Cl)ccc1COc1c(C)cccc1-n1nnn(C)c1=O [Present Compound 21],lesion area on the treated plant with respect to the lesion area on the non-treated plant,[2],≤ 30%
Cc1cccc(-c2ccc(/C=C/c3c(C)cccc3-n3nnn(C)c3=O)c(C)c2)c1 [Present Compound 29],area of lesion on the treated plant relative to that on an untreated plant,[1],≤ 30%
same,lesion area on the treated plant with respect to the lesion area on the non-treated plant,[2],≤ 30%
"Cc1cc(-c2ccccc2)ccc1/C=C/c1c(C)cccc1-n1nnn(C)c1=O [Present Compound 27, 1-{2-[2-(3-methylbiphenyl-4-yl)ethenyl]-3-methylphenyl}-4-methyl-1,4-dihydrotetrazol-5-one]",area of lesion on the treated plant relative to that on an untreated plant,[1],≤ 30%
same,lesion area on the treated plant with respect to the lesion area on the non-treated plant,[2],≤ 30%
Cc1cc(-c2ncccc2F)c(C)cc1COc1c(C)cccc1-n1nnn(C)c1=O [Present Compound 46],lesion area on the treated plant with respect to the lesion area on the non-treated plant,[2],≤ 30%
"Cc1cccc(-n2nnn(C)c2=O)c1/C=C/c1ccc(-c2ccccc2)cc1 [Present Compound 26, 1-{2-[2-(biphenyl-4-yl)ethenyl]-3-methylphenyl}-4-methyl-1,4-dihydrotetrazol-5-one]",lesion area on the treated plant with respect to the lesion area on the non-treated plant,[2],≤ 30%
"COc1ccccc1-c1csc(/C=C/c2c(C)cccc2-n2nnn(C)c2=O)n1 [Present Compound 57, (E)-2-{2-[1-(4,5-dihydro-4-methyl-5-oxo-1H-tetrazol-1-yl)-3-methylphenyl-2-yl]ethenyl}-4-(2-methoxyphenyl)thiazole]",area of lesion on the treated plant relative to that on an untreated plant,[1],≤ 30%
same,lesion area on the treated plant with respect to the lesion area on the non-treated plant,[2],≤ 30%
Cc1cc(-c2ccc(F)cn2)c(C)cc1COc1c(C)cccc1-n1nnn(C)c1=O [Present Compound 48],lesion area on the treated plant with respect to the lesion area on the non-treated plant,[2],≤ 30%
"Cc1cccc(-n2nnn(C)c2=O)c1OCc1ccn(-c2ccc(Cl)cc2)n1 [Present Compound 56, 1-(2-{[1-(4-chlorophenyl)-1H-pyrazol-3-yl]methoxy}-3-methylphenyl)-4-methyl-1,4-dihydrotetrazol-5-one]",area of lesion on the treated plant relative to that on an untreated plant,[1],≤ 30%
"Cc1cc(-c2ccccc2)ccc1COc1c(C)cccc1-n1nnn(C)c1=O [Present Compound 13, 1-{2-[(4-phenyl-2-methylphenyl)methoxy]-3-methylphenyl}-4-methyl-1,4-dihydrotetrazol-5-one]",area of lesion on the treated plant relative to that on an untreated plant,[1],≤ 30%
same,lesion area on the treated plant with respect to the lesion area on the non-treated plant,[2],≤ 30%
"Cc1cccc(-c2ccc(COc3c(C)cccc3-n3nnn(C)c3=O)cc2)n1 [Present Compound 23, 1-(2-{[4-(6-methylpyridin-2-yl)phenyl]methoxy}-3-methylphenyl)-4-methyl-1,4-dihydrotetrazol-5-one]",area of lesion on the treated plant relative to that on an untreated plant,[1],≤ 30%
same,lesion area on the treated plant with respect to the lesion area on the non-treated plant,[2],≤ 30%
Cc1cccc(-c2ccc(COc3c(C)cccc3-n3nnn(C)c3=O)c(C)c2)n1 [Present Compound 19],area of lesion on the treated plant relative to that on an untreated plant,[1],≤ 30%
same,lesion area on the treated plant with respect to the lesion area on the non-treated plant,[2],≤ 30%
Cc1cccc(-c2ccc(COc3c(C)cccc3-n3nnn(C)c3=O)c(C)c2)c1 [Present Compound 14],area of lesion on the treated plant relative to that on an untreated plant,[1],≤ 30%
same,lesion area on the treated plant with respect to the lesion area on the non-treated plant,[2],≤ 30%
Cc1cccc(-n2nnn(C)c2=O)c1OCc1ccc(Oc2ccccc2)cc1 [Present Compound 11],area of lesion on the treated plant relative to that on an untreated plant,[1],≤ 30%
same,lesion area on the treated plant with respect to the lesion area on the non-treated plant,[2],≤ 30%
"Cc1cc(-c2ccccn2)ccc1COc1c(C)cccc1-n1nnn(C)c1=O [Present Compound 18, 1-(2-{[4-(pyridin-2-yl)-2-methylphenyl]methoxy}-3-methylphenyl)-4-methyl-1,4-dihydrotetrazol-5-one]",area of lesion on the treated plant relative to that on an untreated plant,[1],≤ 30%
same,lesion area on the treated plant with respect to the lesion area on the non-treated plant,[2],≤ 30%
